Hit rate of the full screen: of about 340,000 compounds, about 6,200 (1.8%) were called active. The shares of active, inactive and inconclusive entries below differ from those in the screen. Calls follow the shape of the dose curve; as a rule, active = well fitted activation curve with a large enough effect; inconclusive = small, poorly fitted or top-dose-only effect; inactive = no such curve, though single readings can be large or run the other way. Potencies of inconclusive entries are doubtful fits and often do not repeat.
experiment: A quantitative high throughput screen for small molecules that induce DNA re-replication in SW480 colon adenocarcinoma cells.; also: nearly all actives have a fitted effect of over 55% in size; as to re-replication activation: % of control where 0% means no effect; details: Hoechst DNA content imaging, 48 h; re-replication activation: at 46.1 µM (top of the series) unless noted
Outline: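 Readout is total intensity of Hoechst-stained nuclei, excited at 405 nm and collected at 500-530 nm. Compound treatment lasted 48 hr at 37 C in 5% CO2 before staining.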
Potency is read from the fitted curve at half-maximal effect.

Structure (SMILES)	Potency	re-replication activation
C/C(=N\NC(=O)c1ccn(C)n1)c1ccco1	inconclusive: 23.1 µM [activator, single point]	–
COc1ccc2sc(-c3ccccc3OC)c(-c3ccc(OCCN4CCCC4)cc3)c2c1	inconclusive: 16.4 µM [activator, partial curve, poor fit]	–
CCOc1ccc(NC(=O)CSc2ncnc3c2sc2ccccc23)cc1	inconclusive: 25.9 µM [activator, partial curve, poor fit]	–
CCCn1c(/N=C/c2ccccc2O)nc2ccccc21	–	inactive: -1.83%
Cc1cc(Cl)ccc1NC(=O)CN1CCC(C(O)(c2ccccc2)c2ccccc2)CC1	inconclusive: 20.6 µM [activator, single point]	–
COc1cccc(-n2c(C)cc(/C=C3\C(=N)N4N=C(CC(=O)N5CCOCC5)SC4=NC3=O)c2C)c1	–	inactive: 17.7%
COCCNC(=O)NC12CC3CC(CC(C3)C1)C2	–	inactive: -25.7%
COc1ccc(NC(=O)Cc2ccc(-c3ccccc3)cc2)cn1	inconclusive: 29.1 µM [activator, single point]	–
COc1ccc(Nc2nc(Nc3ccc(OC)cc3OC)nc(N3CCN(C)CC3)n2)c(OC)c1	inconclusive: 29.1 µM [activator, single point]	–
Cc1cc(NC(=O)c2ccc(Cl)c([N+](=O)[O-])c2)no1	inconclusive: 4.11 µM [activator, full curve, poor fit]	–
COc1cccc(C(=O)Nc2c[nH]c(=O)[nH]c2=O)c1	–	inactive: -3.55%
CC(C)=CCN1CCN(Cc2cc(F)ccc2-n2nc(C)cc2C)CC1CCO (stereo not drawn)	inconclusive: 6.51 µM [activator, single point]	–
CCOC(=O)c1ccc(C(=O)OCC)c(NC(=S)Nc2ccc([N+](=O)[O-])cc2OC)c1	–	inactive: 1.89%
Cc1ccc(C)c(CSc2nc3[nH]ncc3c(=O)[nH]2)c1	active: 3.66 µM	–
O=C1C=C(c2ccccc2)C[C@H](c2cccs2)[C@H]1n1nnc([N+](=O)[O-])n1	active: 2.06 µM	–
CC(C)=CCC/C(C)=C/C=C/C(C)=C/C=C/C(C)=C/C=C/C=C(C)/C=C/C=C(C)/C=C/C=C(\C)CCC=C(C)C	active: 18.8 µM	–
Cc1cc(NC(=O)c2cc(-c3cccnc3)nc3c(C)c(C)ccc23)no1	inconclusive: 18.4 µM [activator, single point]	–
Cc1ccc(S(=O)(=O)N2CCN(C(=O)COC(=O)CCOc3ccccc3)CC2)c(C)c1	inconclusive: 18.4 µM [activator, partial curve]	–
Cc1cccc(N2CCN(S(=O)(=O)c3ccc4c(c3)C(C)(C)C(=O)N4C)CC2)c1C	inconclusive: 29.1 µM [activator, single point]	–
CN(C)C(=O)CSc1nnc(-c2ccc(S(=O)(=O)N3CCCC3)cc2)n1C	inconclusive: 0.0073 µM [activator, full curve, poor fit]	–
CN(C)CCCNc1cc(-c2ccccc2)nc2cc(-c3cccc(F)c3)nn12	inconclusive: 29.1 µM [activator, single point]	–
Cc1cnc(C(=O)OCC(=O)NCc2ccc(Cl)cc2)cn1	–	inactive: -18.8%

Of the compounds above, three have a thiophene ring, fused or not.
Structure (SMILES)	Potency	re-replication activation
COc1ccc2sc(-c3ccccc3OC)c(-c3ccc(OCCN4CCCC4)cc3)c2c1	inconclusive: 16.4 µM [activator, partial curve, poor fit]	–
CCOc1ccc(NC(=O)CSc2ncnc3c2sc2ccccc23)cc1	inconclusive: 25.9 µM [activator, partial curve, poor fit]	–
O=C1C=C(c2ccccc2)C[C@H](c2cccs2)[C@H]1n1nnc([N+](=O)[O-])n1	active: 2.06 µM	–

The list continues:

Structure (SMILES)	Potency	re-replication activation
O=[N+]([O-])c1ccc(S(=O)(=O)N(CCCN2CCOCC2)Cc2cccs2)cc1	–	inactive: -70.7%
Nc1nnnn1CC(=O)N/N=C/c1cccs1	inconclusive: 6.51 µM [activator, single point]	–
COc1ccc(C(=O)CC(=O)C(=O)Nc2cccc([N+](=O)[O-])c2C)cc1	inconclusive: 18.4 µM [activator, single point]	–
CO[C@H]1CC[C@@]2(C)[C@@H](CC[C@@H]3[C@@H]2CC[C@@]2(C)[C@H]3C[C@H](C(=O)N[C@@H](CCCN=C(N)N)C(=O)NCC(=O)N[C@@H](CC(=O)O)C(N)=O)O[C@]23CCCO3)C1	–	inactive: 12.8% [at 9.22 µM]
CCOC(=O)C1CCCN(C(=O)Cc2c(F)cccc2Cl)C1 (stereo not drawn)	inconclusive: 29.1 µM [activator, single point]	–
O=C(CCn1ccc2cc(S(=O)(=O)N3CCCC3)ccc21)NCc1ccccc1	–	inactive: -0.782%
O=C(O)C(CCCCN1C(=O)C2C3C=CC(C3)C2C1=O)N1C(=O)C2C3C=CC(C3)C2C1=O (stereo not drawn)	inconclusive: 4.61 µM [activator, partial curve, poor fit]	–
CCOC(=O)NC(=O)/C(N=Nc1cc(C)cc(C)c1)=C(\C)O	inconclusive: 0.731 µM [activator, partial curve, poor fit]	–
O=C(NC1CC1)C1CCN(C2CCN(C(=O)CSc3ccccc3)CC2)CC1	inconclusive: 18.4 µM [activator, partial curve, poor fit]	–
O=C(N/N=C/c1cc2ccccc2nc1Cl)c1ccncc1	inconclusive: 18.4 µM [activator, single point]	–
Cc1ccc(OC(C)C(=O)Nc2ccc(C)c(S(=O)(=O)Nc3ccc(C)cc3C)c2)cc1 (stereo not drawn)	inconclusive: 14.6 µM [activator, partial curve, poor fit]	–
O=C(Nc1ccccc1)c1ccccc1CCc1ccccc1	inconclusive: 0.326 µM [activator, partial curve, poor fit]	–
CC1=CC(C)(C)NC(=O)N1c1ccc(C)cc1	–	inactive: -3.11%
COc1ccccc1N(CN1C(=O)c2ccccc2C1=O)C(=O)c1cccc(C)c1	inconclusive: 2.91 µM [activator, partial curve, poor fit]	–
CCOc1ccc(Nc2c3ccccc3nc3ccccc23)cc1	active: 4.61 µM	–
N#Cc1ccccc1Sc1ccccc1C(=O)OCC(N)=O	inconclusive: 16.4 µM [activator, single point]	–
CCOc1ncccc1C(=O)OCC(=O)NC(=O)c1ccccc1	–	inactive: -14.5%
CC(=O)NC1CC2CCCC(C1)N2C(=O)Nc1cccc(C(C)=O)c1 (stereo not drawn)	–	inactive: -10%
O=C(Nc1cc(-c2nc3ncccc3o2)ccc1Cl)c1cccs1	–	inactive: -0.153%
CCN(CCCNC(=O)C1CCN(C(=O)c2cc3sccc3n2C)CC1)Cc1ccccc1	inconclusive: 16.4 µM [activator, single point]	–
COc1ccccc1N1CCN(C(=O)c2ccc(Cl)c(S(=O)(=O)N3CCOCC3)c2)CC1	inconclusive: 32.6 µM [activator, partial curve, poor fit]	–

Source: PubChem BioAssay AID624297 (National Center for Advancing Translational Sciences (NCATS), 2012)
